# Experimental data as given in the supplement of paper PMC11659162.
# “And” between values parts separate entries of the source, which are not always exact repeats. Equal entries are not always repeated. The list shows a part of the results. Single values of this set are uncertain.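 The cells are a human neuroglioma line carrying a green fluorescent autophagy reporter.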
# Key:
# H4 GFP-LC3 [1] = assay: cell viability (scaled to control) (fraction of control); higher = more viable cells; details: 5 µM
# H4 GFP-LC3 [2] = assay: ACBP immunofluorescence intensity (scaled to control) (AU (scaled)); higher = more intracellular ACBP/DBI; details: 5 µM
Compound,cell viability (H4 GFP-LC3 [1]; 6 h),cell viability (H4 GFP-LC3 [1]; 24 h),ACBP immunofluorescence intensity (H4 GFP-LC3 [2]; 6 h),ACBP immunofluorescence intensity (H4 GFP-LC3 [2]; 24 h)
N=C(NCc1ccc(Cl)cc1)SCCCc1c[nH]cn1,1.12,0.92,0.917,0.437
"C[N+]1(C)CCc2cc3c(cc2C1C1OC(=O)c2c1ccc1c2OCO1)OCO3 (single isomer, unassigned; (-))",0.845,0.855,0.957,0.472
CCCN[C@@H]1CCc2c(OC)cccc2[C@@H]1C,0.795,1.23,0.897,0.694
N[C@@H](Cn1oc(=O)[nH]c1=O)C(=O)O,1.01,1.13,0.892,0.396
c1ccc2c(N3CCNCC3)cccc2c1,0.842,1.16,0.842,0.613
NC(=O)[C@H](Cc1ccccc1)NC(=O)[C@H](Cc1c[nH]c2ccccc12)NC(=O)[C@@H]1CCCN1C(=O)[C@@H](N)Cc1ccc(O)cc1,1.05 and 1.2,1.02 and 0.839,0.947 and 0.762,0.917 and 0.592
COc1ccc2[nH]cc(C3=CCNCC3)c2c1,0.877,0.871,0.788,0.399
Cc1nc(N)sc1CCN,1.1,0.997,0.939,0.508
c1ccc(C2CNCc3ccccc32)cc1 (centres undefined),0.794,1.25,0.938,0.432
CN(C)CCN(C)CCc1ccc(Cl)c(Cl)c1,0.95,0.902,0.778,0.634
C[N+](C)(C)CC#CCOC(=O)Nc1cccc(Cl)c1,0.933,1.14,0.958,0.589
C[C@@H]1O[C@H](C[N+](C)(C)C)C[C@H]1O,1.04,1.36,0.869,0.565
O=C1C[C@@H]2OCC=C3CN4CC[C@]56c7ccccc7N1[C@H]5[C@H]2[C@H]3C[C@H]46,0.869,1.18,0.989,0.784
c1ccc2nc(N3CCNCC3)ccc2c1,0.85,1.09,0.895,0.605
Cn1cc(C(=O)C(=O)NC2CN3CCC2CC3)c2ccccc21 (centres undefined),0.707,0.798,0.909,0.546
C[N+]1(C)CCOC(O)(c2ccc(-c3ccc(C4(O)C[N+](C)(C)CCO4)cc3)cc2)C1 (centres undefined),0.915,1.3,1,0.925
C=CC[N+]1(C)CC[C@]23c4c5ccc(O)c4O[C@H]2C(=O)CC[C@@]3(O)[C@H]1C5 (some centres undefined),0.967,1.24,0.877,0.888
NCCc1ccc(O)cc1,1.08,0.88,0.544,0.732
CN1Cc2ccccc2[C@@H]2c3cccc4[nH]cc(c34)C[C@H]21,0.894,1.03,0.739,0.604
"CC12NC(Cc3ccccc31)c1ccccc12 (single isomer, unassigned; (+))",0.991,1.16,0.757,0.343
CC(N)Cc1cnc[nH]1 (centres undefined),1.02 and 1.01,1.13 and 1.02,0.959 and 0.958,0.785 and 0.872
COc1ccc(CCN2CCC(Nc3nc4ccccc4n3Cc3ccc(F)cc3)CC2)cc1,0.89,0.78,0.987,0.837
CC(NC(=O)C(N)Cc1ccc(O)cc1)C(=O)NC(Cc1ccccc1)C(=O)NC(Cc1ccccc1)C(N)=O (centres undefined),0.923,1.22,0.925,0.948
Cc1ncsc1CCCl,0.921,1.1,0.936,0.534
Oc1ccc2c3c1O[C@H]1c4oc5ccccc5c4C[C@@]4(O)[C@@H](C2)N(CC2CC2)CC[C@]314,1.08,0.864,0.732,0.602
CC[C@H](C)[C@H](NC(=O)[C@H](CCCN=C(N)N)NC(=O)[C@H](CCCN=C(N)N)NC(=O)[C@H](CC(C)C)NC(=O)[C@H](Cc1ccccc1)NC(=O)CNC(=O)CNC(=O)[C@@H](N)Cc1ccc(O)cc1)C(=O)N[C@@H](CCCN=C(N)N)C(=O)N1CCC[C@H]1C(=O)N[C@@H](CCCCN)C(=O)N[C@@H](CC(C)C)C(=O)N[C@@H](CCCCN)C(=O)O,1.05,0.956,0.765,0.667

# Nothing new here: entries from further up.
Compound,cell viability (H4 GFP-LC3 [1]; 6 h),cell viability (H4 GFP-LC3 [1]; 24 h),ACBP immunofluorescence intensity (H4 GFP-LC3 [2]; 6 h),ACBP immunofluorescence intensity (H4 GFP-LC3 [2]; 24 h)
Cc1nc(N)sc1CCN,1.1,0.997,0.939,0.508
c1ccc(C2CNCc3ccccc32)cc1 (centres undefined),0.794,1.25,0.938,0.432
